Measured values: PubChem BioAssay AID256 (DTP/NCI, 2004)
The list shows only some results of the screen, not a fair sample: it is rich in T/C values a quarter to a half above the control, in often repeated tests (any T/C) and in doses without a T/C. Further doses and runs are listed elsewhere. T/C gives the treated animals as a percentage of the vehicle group. Some entries give survivors of the animals treated and no T/C: the source files T/C as zero there, which appears to mark a toxic dose or a test without result, not a measured value. Some doses without a T/C left all or most animals alive at the check, yet need not have been tolerated: the source hardly ever lists a survival T/C far under the control, and the zero likely stands for such cases as well. Survivors were counted at the toxicity check, usually on the fifth day, unless a day is given; later deaths do not show. Schedule codes are those of the source, read here as Q, the interval in days (D) or hours (H), X, the number of doses. Some schedule codes hold Z or #, which are not explained here. Where survival is the endpoint, the PubChem record calls one and a half times the control and up active, and a quarter to a half above the control has no call in these data; cut-offs in other NCI protocols can differ. Some entries hold several experiments; the results are listed from low to high. Some T/C values carry the count of animals alive at the toxicity check (mostly the fifth day); where none is given, no animal had died by that day.

Tested on: CD2F1 mice, L1210 leukemia ip, survival T/C
Assay: NCI In Vivo Anticancer Drug Screen. Data for tumor model L1210 Leukemia (intraperitoneal) in CD2F1 (CDF1) mice
Settings: higher T/C = longer survival
Procedure, shortened: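 In this screen, transplantable tumors were grown in mice given either the compound or its vehicle. Results were expressed as the treated measurement relative to the control measurement.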

[1] = T/C endpoint: mean survival time, dose: 200.0 mg/kg/injection, schedule: Q01DX009 (ip), vehicle: saline with Tween-80
[2] = T/C endpoint: mean survival time, dose: 400.0 mg/kg/injection, schedule: Q01DX009 (ip), vehicle: saline with Tween-80
[3] = T/C endpoint: mean survival time, dose: 200.0 mg/kg/injection, schedule: Q01DX001 (ip), vehicle: saline with Tween-80
[4] = T/C endpoint: mean survival time, dose: 400.0 mg/kg/injection, schedule: Q01DX001 (ip), vehicle: saline with Tween-80
[5] = T/C endpoint: mean survival time, dose: 400.0 mg/kg/injection, schedule: Q01DX001 (ip), vehicle: saline
[6] = T/C endpoint: mean survival time, dose: 400.0 mg/kg/injection, schedule: Q04DX002 (ip), vehicle: saline with Tween-80

In the case of `NC(CCSCc1ccc(N(CCCl)CCCl)cc1)C(=O)O` (centres undefined), the T/C (T/C endpoint: mean survival time, dose: 6.0 mg/kg/injection, schedule: Q01DX009 (ip), vehicle: carboxymethylcellulose (CMC)) is reported as 134 % of control and the T/C (T/C endpoint: mean survival time, dose: 9.0 mg/kg/injection, schedule: Q01DX009 (ip), vehicle: carboxymethylcellulose (CMC)) is reported as 143 % of control.

For `N#CCCN(N=O)C(=O)Nc1ccccc1`, the T/C (T/C endpoint: mean survival time, dose: 25.0 mg/kg/injection, schedule: Q01DX Z (ip), vehicle: carboxymethylcellulose (CMC)) was 125 % of control, the T/C (T/C endpoint: mean survival time, dose: 50.0 mg/kg/injection, schedule: Q01DX Z (ip), vehicle: carboxymethylcellulose (CMC)) was 143 % of control and the survivor count (T/C endpoint: mean survival time, dose: 150.0 mg/kg/injection, schedule: Q01DX Z (ip), vehicle: carboxymethylcellulose (CMC)) was 0 of 6.

In the case of `CCCCCCCCCCCCCCCCCCn1cnc2c(Cl)ncnc21`, the survivor count (T/C endpoint: mean survival time, dose: 100.0 mg/kg/injection, schedule: Q01DX005 (ip), vehicle: other) is reported as 6 of 6.

For `COc1cccc(CN2CCCNCC2)c1`, the survivor count (T/C endpoint: mean survival time, dose: 200.0 mg/kg/injection, schedule: Q01DX005 (ip), vehicle: water) was 4 of 6 and the survivor count (T/C endpoint: mean survival time, dose: 400.0 mg/kg/injection, schedule: Q01DX005 (ip), vehicle: water) was 0 of 6.

For `O=P(O)(O)OP(=O)(O)OCC1OC(n2cnc3c(=S)nc[nH]c32)C(O)C1O` (centres undefined), the T/C (T/C endpoint: mean survival time, dose: 100.0 mg/kg/injection, schedule: Q01DX009 (ip), vehicle: saline sonified) was 126 % of control.

`Cc1nc(N)nc(N)c1CCCOc1ccc(NC(=O)c2cccc(S(=O)(=O)F)c2)cc1` was tested, and the survivor count (T/C endpoint: mean survival time, dose: 200.0 mg/kg/injection, schedule: Q#A X018 (ip), vehicle: saline) was 3 of 6.

`Cc1ccc(Cl)cc1NC(=O)CCl` was tested, and the survivor count [1] was 0 of 6 and the survivor count [2] was 0 of 6.

With `ClCc1ccc(Cl)cc1` the survivor count [3] was 0 of 6 and the survivor count [4] was 0 of 6.

With `CCCOC(=O)c1cncn1C(C)c1ccccc1` (centres undefined) the survivor count (T/C endpoint: mean survival time, dose: 200.0 mg/kg/injection, schedule: Q01DX001 (ip), vehicle: saline) was 3 of 6 and the survivor count [5] was 0 of 6.

In the case of `O=C(O)c1cccc(F)c1Cl`, the survivor count [6] is reported as 2 of 3.

In the case of `CC(=O)C1CCC2C3CC=C4CC(n5c(=O)cc[nH]c5=O)CCC4(C)C3CCC12C` (centres undefined), the T/C (T/C endpoint: mean survival time, dose: 200.0 mg/kg/injection, schedule: Q04DX003 (ip), vehicle: Klucel (hydroxypropylcellulose) (HPC)) is reported as 130 % of control.

In the case of `NC(N)=NC(N)=Nc1ccc(Cl)cc1`, the survivor count [2] is reported as 0 of 6.

For `Cc1nc(C)c(Cc2ccccc2O)c(=O)[nH]1`, the survivor count (T/C endpoint: mean survival time, dose: 100.0 mg/kg/injection, schedule: Q01DX001 (ip), vehicle: saline) was 3 of 6 and the survivor count [5] was 2 of 6.

In the case of `Cc1ccc(NC(=O)N(CCCl)N=O)cc1Cl`, the T/C (T/C endpoint: mean survival time, dose: 1.6 mg/kg/injection, schedule: Q01DX001 (ip), vehicle: carboxymethylcellulose (CMC)) is reported as 125 % of control, the T/C (T/C endpoint: mean survival time, dose: 2.5 mg/kg/injection, schedule: Q01DX001 (ip), vehicle: carboxymethylcellulose (CMC)) is reported as 125 % of control and the T/C (T/C endpoint: mean survival time, dose: 3.8 mg/kg/injection, schedule: Q01DX001 (ip), vehicle: carboxymethylcellulose (CMC)) is reported as 127 % of control. For the same compound, the T/C (T/C endpoint: mean survival time, dose: 5.7 mg/kg/injection, schedule: Q01DX001 (ip), vehicle: carboxymethylcellulose (CMC)) was 128 % of control, the T/C (T/C endpoint: mean survival time, dose: 8.6 mg/kg/injection, schedule: Q01DX001 (ip), vehicle: carboxymethylcellulose (CMC)) was 132 and 133 % of control and the T/C (T/C endpoint: mean survival time, dose: 13.0 mg/kg/injection, schedule: Q01DX001 (ip), vehicle: carboxymethylcellulose (CMC)) was 128 % of control. The T/C (T/C endpoint: mean survival time, dose: 20.0 mg/kg/injection, schedule: Q01DX001 (ip), vehicle: carboxymethylcellulose (CMC)) was 128 and 147 % of control.

For `CCOC(=O)c1cnc(SCc2ccccc2Cl)nc1N1CC1`, the T/C (T/C endpoint: mean survival time, dose: 42.5 mg/kg/injection, schedule: Q01DX009 (ip), vehicle: saline with Tween-80) was 126 % of control and the survivor count (T/C endpoint: mean survival time, dose: 63.75 mg/kg/injection, schedule: Q01DX009 (ip), vehicle: saline with Tween-80) was 3 of 6.

In the case of `CC(C)C(=O)c1ccco1`, the survivor count (T/C endpoint: mean survival time, dose: 100.0 mg/kg/injection, schedule: Q04DX003 (ip), vehicle: saline with Tween-80) is reported as 2 of 6, the survivor count (T/C endpoint: mean survival time, dose: 200.0 mg/kg/injection, schedule: Q04DX003 (ip), vehicle: saline with Tween-80) is reported as 0 of 6 and the survivor count (T/C endpoint: mean survival time, dose: 400.0 mg/kg/injection, schedule: Q04DX003 (ip), vehicle: saline with Tween-80) is reported as 0 of 6.

For `Cc1nc(N)nc(N)c1-c1ccc(Cl)c(Cl)c1`, the T/C (T/C endpoint: mean survival time, dose: 2.0 mg/kg/injection, schedule: Q01DX009 (sc), vehicle: other) was 128 % of control, the T/C (T/C endpoint: mean survival time, dose: 3.0 mg/kg/injection, schedule: Q01DX009 (sc), vehicle: other) was 135 % of control and the T/C (T/C endpoint: mean survival time, dose: 4.0 mg/kg/injection, schedule: Q01DX009 (ip), vehicle: saline with Tween-80) was 139 % of control. The T/C (T/C endpoint: mean survival time, dose: 8.0 mg/kg/injection, schedule: Q01DX009 (ip), vehicle: Klucel (hydroxypropylcellulose) (HPC)) was 125 % of control [5 of 6 alive], the T/C (T/C endpoint: mean survival time, dose: 8.0 mg/kg/injection, schedule: Q01DX009 (ip), vehicle: saline with Tween-80) was 146 % of control and the survivor count (T/C endpoint: mean survival time, dose: 10.0 mg/kg/injection, schedule: Q02DX005 (ip), vehicle: saline) was 2 of 6. For the same compound, the survivor count (T/C endpoint: mean survival time, dose: 16.0 mg/kg/injection, schedule: Q01DX009 (ip), vehicle: saline with Tween-80) was 6 of 6, the survivor count (T/C endpoint: mean survival time, dose: 20.0 mg/kg/injection, schedule: Q02DX005 (ip), vehicle: saline) was 0 of 6 and the T/C (T/C endpoint: mean survival time, dose: 33.0 mg/kg/injection, schedule: Q04DX003 (ip), vehicle: saline) was 137 % of control. The T/C (T/C endpoint: mean survival time, dose: 50.0 mg/kg/injection, schedule: Q04DX003 (ip), vehicle: saline) was 127 % of control and the T/C (T/C endpoint: median survival time, dose: 2.5 mg/kg/injection, schedule: Q01DX009 (ip), vehicle: saline) was 132 % of control.

In the case of `Nc1nc(-c2cccc([N+](=O)[O-])c2)c(N=Nc2cccc([N+](=O)[O-])c2)s1`, the survivor count [3] is reported as 6 of 6.

In the case of `N#CCS(=O)(=O)c1ccccc1`, the survivor count (T/C endpoint: mean survival time, dose: 100.0 mg/kg/injection, schedule: Q01DX001 (ip), vehicle: saline with Tween-80) is reported as 0 of 6 and the survivor count [3] is reported as 0 of 6.

With `C=CCC(Cc1ccccc1)C1=NC(C)(C)CC(C)O1` (centres undefined) the survivor count [4] was 0 of 6.

In the case of `O=P(=O)OP(=O)=O.[O]=[W](=[O])=[O]`, the survivor count [1] is reported as 3 of 6 and the survivor count [2] is reported as 0 of 6.

`[C-]#[O+].[C-]#[O+].[C-]#[O+].[C-]#[O+].[CH3][Sn]([CH3])[CH3].[Co]` was tested, and the survivor count (T/C endpoint: mean survival time, dose: 0.19 mg/kg/injection, schedule: Q01DX009 (ip), vehicle: saline) was 1 of 3, the survivor count (T/C endpoint: mean survival time, dose: 0.39 mg/kg/injection, schedule: Q01DX009 (ip), vehicle: saline) was 0 of 3 and the survivor count (T/C endpoint: mean survival time, dose: 1.56 mg/kg/injection, schedule: Q01DX009 (ip), vehicle: saline) was 0 of 3. The survivor count (T/C endpoint: mean survival time, dose: 6.25 mg/kg/injection, schedule: Q01DX009 (ip), vehicle: saline) was 0 of 3, the survivor count (T/C endpoint: mean survival time, dose: 12.5 mg/kg/injection, schedule: Q01DX009 (ip), vehicle: saline) was 0 of 3 and the survivor count (T/C endpoint: mean survival time, dose: 25.0 mg/kg/injection, schedule: Q01DX009 (ip), vehicle: saline) was 0 of 3.

With `C1=NCCN1` the survivor count (T/C endpoint: mean survival time, dose: 400.0 mg/kg/injection, schedule: Q01DX009 (ip), vehicle: saline) was 0 of 6.

In the case of `CCCOc1cc[n+]([O-])c2ccccc12`, the survivor count [6] is reported as 0 of 3.

In the case of `Nc1nc(=S)c2ncn(C3OC(CO)C(O)C3O)c2[nH]1` (centres undefined), the T/C (T/C endpoint: mean survival time, dose: 8.0 mg/kg/injection, schedule: Q01DX005 (ip), vehicle: saline + alcohol) is reported as 145 % of control, the T/C (T/C endpoint: mean survival time, dose: 10.0 mg/kg/injection, schedule: Q01DX007 (ip), vehicle: saline) is reported as 134 % of control and the T/C (T/C endpoint: mean survival time, dose: 10.0 mg/kg/injection, schedule: Q01DX009 (ip), vehicle: saline) is reported as 137 % of control. For the same compound, the T/C (T/C endpoint: mean survival time, dose: 16.0 mg/kg/injection, schedule: Q01DX005 (ip), vehicle: saline + alcohol) was 141 % of control, the T/C (T/C endpoint: mean survival time, dose: 18.8 mg/kg/injection, schedule: Q01DX009 (ip), vehicle: saline) was 140 % of control and the T/C (T/C endpoint: mean survival time, dose: 20.0 mg/kg/injection, schedule: Q01DX009 (ip), vehicle: saline) was 137 % of control. The survivor count (T/C endpoint: mean survival time, dose: 40.0 mg/kg/injection, schedule: Q01DX007 (ip), vehicle: saline) was 6 of 6, the T/C (T/C endpoint: mean survival time, dose: 40.0 mg/kg/injection, schedule: Q03DX003 (ip), vehicle: saline) was 140 % of control and the survivor count (T/C endpoint: mean survival time, dose: 150.0 mg/kg/injection, schedule: Q01DX009 (ip), vehicle: saline) was 4 of 6. For the same compound, the T/C (T/C endpoint: mean survival time, dose: 600.0 mg/kg/injection, schedule: Q01DX001 (ip), vehicle: saline) was 144 % of control [5 of 6 alive].

With `Clc1ccc2ccccc2c1C(Cl)Cl` the survivor count (T/C endpoint: mean survival time, dose: 100.0 mg/kg/injection, schedule: Q01DX009 (ip), vehicle: saline with Tween-80) was 6 of 6.
